# According to patent US20250228861A1, “Cancer Treatments Using MTA-Cooperative PRMT5 Inhibitors” (AMGEN INC., priority 2022, published 2025):
# Like-named read-outs stand apart in the source and are kept apart here.
# Experiments:
# [1] = tested on: NSCLC (H292) cell line; conditions: H292 cells; nuclear counts over 10 days
# [2] = tested on: PSN1 cells; conditions: 6 days
# [3] = tested on: A549 cells; assay: Combination with pemetrexed, CellTiter-Glo viability, Fa and CalcuSyn CI; conditions: Compound B 0.1535 μM fixed + Pemetrexed 0.087792 μM, 6 days;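 also: fa derived from raw CellTiter-Glo luminescence, CI computed by CalcuSyn from drug concentrations and Fa, with values below 0.9 meaning synergism and 0.9–1.1 nearly additive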
# [4] = tested on: MIAPACA2T2 cells; conditions: 6 days
# [5] = Compound B 0.0202 μM fixed + 5-FU 0.357628 μM
# [6] = Compound B 0.0202 μM fixed + 5-FU 0.572205 μM
# [7] = Compound B 0.0202 μM fixed + 5-FU 0.915527 μM
# [8] = Compound B 0.0202 μM fixed + 5-FU 1.46484 μM
# [9] = Compound B 0.0202 μM fixed + 5-FU 2.34375 μM
# [10] = Compound B 0.0202 μM fixed + 5-FU 3.75 μM
# [11] = Compound B 0.0202 μM fixed + 5-FU 6 μM
# [12] = Compound B 0.4374 μM fixed + 5-FU 0.664052 μM
# [13] = Compound B 0.4374 μM fixed + 5-FU 0.929672 μM
# [14] = Compound B 0.4374 μM fixed + 5-FU 1.30154 μM
# [15] = Compound B 0.4374 μM fixed + 5-FU 1.82216 μM
# [16] = Compound B 0.4374 μM fixed + 5-FU 3.57143 μM
# [17] = Compound B 0.4374 μM fixed + 5-FU 5 μM
smiles,measurement,setting,value
Cc1cc2cc(C(=O)N(Cc3ccc(C(F)(F)F)cn3)[C@@H](C)c3ncccn3)ccc2nc1N [Compound B],anti-tumor cell growth activity of combination with carboplatin,[1],significant anti-tumor cell growth activity versus either paclitaxel or carboplatin alone
same,anti-tumor cell growth activity of combination with paclitaxel,[1],significant anti-tumor cell growth activity versus either paclitaxel or carboplatin alone
same,Combination Fa,[2]; [5],0.5061
same,Computed CI value,[2]; [5],0.932
same,Combination Fa,[2]; [6],0.453
same,Computed CI value,[2]; [6],1.299
same,Combination Fa,[2]; [7],0.5174
same,Computed CI value,[2]; [7],1.305
same,Combination Fa,[2]; [8],0.6551
same,Computed CI value,[2]; [8],1.047
same,Combination Fa,[2]; [9],0.7273
same,Computed CI value,[2]; [9],1.056
same,Combination Fa,[2]; [10],0.8588
same,Computed CI value,[2]; [10],0.717
same,Combination Fa,[2]; [11],0.9075
same,Computed CI value,[2]; [11],0.674
same,Computed CI value,[3],1.06
same,Combination Fa,[4]; [12],0.746
same,Computed CI value,[4]; [12],0.386
same,Combination Fa,[4]; [13],0.799
same,Computed CI value,[4]; [13],0.347
same,Combination Fa,[4]; [14],0.818
same,Computed CI value,[4]; [14],0.404
same,Combination Fa,[4]; [15],0.856
same,Computed CI value,[4]; [15],0.428
same,Computed CI value,[4]; Compound B 0.4374 μM fixed + 5-FU 2.55102 μM,0.48
same,Combination Fa,[4]; [16],0.911
same,Computed CI value,[4]; [16],0.54
same,Combination Fa,[4]; [17],0.918
same,Computed CI value,[4]; [17],0.704
